Results are given in words; binding and its absence hold for the method and conditions named. Binding can be weak; no strength is given. Where a sequence is shown, tags or fusion partners need not be part of it.
Target: T1, MBP-BBS8 (C. reinhardtii)
T1 sequence: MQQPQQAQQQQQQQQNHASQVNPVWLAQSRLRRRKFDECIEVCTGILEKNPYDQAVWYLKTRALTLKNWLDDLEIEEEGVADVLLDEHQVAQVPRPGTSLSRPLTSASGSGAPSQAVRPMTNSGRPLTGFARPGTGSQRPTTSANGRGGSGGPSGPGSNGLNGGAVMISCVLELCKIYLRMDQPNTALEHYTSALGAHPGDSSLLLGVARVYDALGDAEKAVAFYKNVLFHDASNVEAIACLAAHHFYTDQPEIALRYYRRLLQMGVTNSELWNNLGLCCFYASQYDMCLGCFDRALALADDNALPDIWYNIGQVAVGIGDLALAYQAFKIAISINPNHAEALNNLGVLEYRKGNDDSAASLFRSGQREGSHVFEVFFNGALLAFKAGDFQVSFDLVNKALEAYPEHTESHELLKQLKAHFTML
Test: pull-down

RAB18Q67L (bacterially expressed) (C. reinhardtii)
binding: binds

Reference: paper doi:10.1101/2025.02.04.636545
